# Assay results from patent publication US20240156846A1, “COMPOSITIONS AND METHODS FOR TREATING NEURODEGENERATIVE DISORDERS” (Arizona Board of Regents on Behalf of the University of …, priority 2020, published 2024).
# For at least one compound, name, drawing or mass did not settle the structure.
# Tests used:
# [1] = tested on: primary cultures of human microglia exposed to Aβ1-42 aggregates; assay: Aβ1-42 uptake (phagocytosis) by microglia, prevention setting; format: cell-based; details: prevention setting: compounds at 0 h, 1 μM Aβ1-42 after 24 h, read at 72 h; tested 1 nM to 100 μM
# [2] = tested on: primary cultures of human microglia exposed to Aβ1-42 aggregates; assay: Aβ1-42 uptake (phagocytosis) by microglia, rescue setting; format: cell-based; details: rescue setting: Aβ1-42 for 24 h, compounds added, uptake measured at 48 h
# Text: There is considerable interest in microglia-targeted therapies for AD, in part due to the phagocytotic functionality of these cells that can promote neuronal recovery and/or repair. Indeed, phagocytosis of insoluble Aβ by microglia can facilitate CNS clearance of Aβ aggregates and limit formation of amyloid plaques (Ronaldson & Davis, 2020). Indeed, Aβ can bind to receptors at the microglial cell surface, an event that can trigger release of proinflammatory cytokines such as TNF-α and IL-1β, factors that are known to cause neuronal damage (Wang et al. 2015). Additionally, Jiang and colleagues discovered that triggering receptor expressed in myeloid cells 1 (TREM1) can promote Aβ phagocytosis by microglia (Jiang et al. 2016). […] To determine if the natural compounds individually or in combination could promote phagocytosis in microglia, we designed prevention and rescue experiments to measure Aβ1-42 uptake in primary cultures of human microglia via intracellular fluorescence (Online method). […] After 24 h, we added 1 μM of Aβ1-42 aggregates to the treated media and measured cell viability at 72 h using the Aβ uptake assay (Online Method, FIG. 8A). […] Uptake of Aβ1-42 was then measured 24 h later (i.e., at the 48 h experimental time point, FIG. 8B).
# [3] = patients with AD / early-stage AD; cited from earlier work
SMILES,dosages that significantly increased microglial Aβ1-42 uptake [1],dosages that significantly rescued/increased microglial phagocytosis of Aβ1-42 [2],CSF Aβ levels [3]
"NC(=O)c1ccc[n+]([C@@H]2O[C@H](COP(=O)([O-])OP(=O)(O)OC[C@H]3O[C@@H](n4cnc5c(N)ncnc54)[C@H](O)[C@@H]3O)[C@@H](O)[C@H]2O)c1 [NAD+, oxidized nicotinamide adenine dinucleotide]","10 nM, 1 μM, 20 μM and 75 μM",1 to 50000 nM,
"NC(=O)C1=CN([C@@H]2O[C@H](COP(=O)(O)OP(=O)(O)OC[C@H]3O[C@@H](n4cnc5c(N)ncnc54)[C@H](O)[C@@H]3O)[C@@H](O)[C@H]2O)C=CC1 [NADH, reduced nicotinamide adenine dinucleotide]","100 nM, 1 μM, 20 μM and 50 μM","40, 50, 75 μM",
C[C@@]1(c2cc(NC(=O)c3ccc(C#N)cn3)ccc2F)C=CSC(N)=N1 [atabecestat],,,decrease CSF Aβ levels
